Measurements published in publication PMC4865129.

Legend:
[1] = molecular target: T1, AtMORC4 with a C-terminal FLAG or MYC epitope tag (pAtMORC4::AtMORC4-FLAG, pAtMORC4::AtMORC4-MYC) (Arabidopsis thaliana) (UniProt F4KAF2); assay: affinity purification with mass spectrometry; FLAG-tagged AtMORC4 or AtMORC7 plants; M2 magnetic FLAG beads; elution with 3xFLAG peptides; mass spectrometry
T1 sequence: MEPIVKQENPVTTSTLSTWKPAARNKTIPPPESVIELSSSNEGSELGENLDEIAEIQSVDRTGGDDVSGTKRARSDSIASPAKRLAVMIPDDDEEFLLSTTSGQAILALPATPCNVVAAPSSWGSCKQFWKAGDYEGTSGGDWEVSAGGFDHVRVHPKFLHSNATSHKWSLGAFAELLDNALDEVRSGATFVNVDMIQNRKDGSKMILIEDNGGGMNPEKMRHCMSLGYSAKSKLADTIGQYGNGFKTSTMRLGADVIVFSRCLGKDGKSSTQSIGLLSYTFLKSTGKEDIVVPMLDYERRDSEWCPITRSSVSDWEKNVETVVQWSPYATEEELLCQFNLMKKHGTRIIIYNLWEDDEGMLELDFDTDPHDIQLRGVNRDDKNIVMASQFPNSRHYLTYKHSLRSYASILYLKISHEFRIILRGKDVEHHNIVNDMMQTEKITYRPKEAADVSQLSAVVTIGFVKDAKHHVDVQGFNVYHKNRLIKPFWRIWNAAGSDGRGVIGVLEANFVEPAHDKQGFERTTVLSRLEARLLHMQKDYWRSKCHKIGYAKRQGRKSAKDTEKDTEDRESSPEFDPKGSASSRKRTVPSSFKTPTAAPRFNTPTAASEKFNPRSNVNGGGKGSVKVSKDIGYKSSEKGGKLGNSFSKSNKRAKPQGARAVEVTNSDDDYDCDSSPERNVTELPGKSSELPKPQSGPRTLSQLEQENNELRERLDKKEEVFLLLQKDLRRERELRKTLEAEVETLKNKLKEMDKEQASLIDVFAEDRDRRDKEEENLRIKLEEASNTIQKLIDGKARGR

[2] = molecular target: T2, AtMORC7 with a C-terminal FLAG or MYC epitope tag (pAtMORC7::AtMORC7-FLAG, pAtMORC7::AtMORC7-MYC) (Arabidopsis thaliana) (UniProt F4JRS4); assay: as above
T2 sequence: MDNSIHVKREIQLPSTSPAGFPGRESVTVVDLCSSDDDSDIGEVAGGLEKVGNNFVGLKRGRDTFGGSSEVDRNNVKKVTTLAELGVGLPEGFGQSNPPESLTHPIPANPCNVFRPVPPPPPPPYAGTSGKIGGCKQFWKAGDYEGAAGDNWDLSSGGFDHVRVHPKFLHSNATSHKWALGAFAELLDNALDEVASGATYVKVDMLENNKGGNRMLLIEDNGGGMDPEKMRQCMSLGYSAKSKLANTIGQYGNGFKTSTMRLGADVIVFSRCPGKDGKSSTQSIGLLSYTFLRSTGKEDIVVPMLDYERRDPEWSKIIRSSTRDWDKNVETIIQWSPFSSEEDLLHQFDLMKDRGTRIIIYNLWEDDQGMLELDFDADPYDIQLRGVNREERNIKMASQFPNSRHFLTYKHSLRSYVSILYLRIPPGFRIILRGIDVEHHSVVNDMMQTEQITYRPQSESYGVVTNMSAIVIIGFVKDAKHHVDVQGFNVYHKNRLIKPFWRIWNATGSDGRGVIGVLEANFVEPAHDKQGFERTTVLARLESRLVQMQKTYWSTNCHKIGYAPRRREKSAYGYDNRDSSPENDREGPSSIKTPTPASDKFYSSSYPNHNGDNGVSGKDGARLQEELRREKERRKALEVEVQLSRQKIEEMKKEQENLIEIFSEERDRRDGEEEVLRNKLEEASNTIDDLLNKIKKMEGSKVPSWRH

B1: AtMORC7 (untagged, in plants expressing AtMORC4-FLAG) (protein, UniProt F4JRS4 1-707)
chain: MDNSIHVKREIQLPSTSPAGFPGRESVTVVDLCSSDDDSDIGEVAGGLEKVGNNFVGLKRGRDTFGGSSEVDRNNVKKVTTLAELGVGLPEGFGQSNPPESLTHPIPANPCNVFRPVPPPPPPPYAGTSGKIGGCKQFWKAGDYEGAAGDNWDLSSGGFDHVRVHPKFLHSNATSHKWALGAFAELLDNALDEVASGATYVKVDMLENNKGGNRMLLIEDNGGGMDPEKMRQCMSLGYSAKSKLANTIGQYGNGFKTSTMRLGADVIVFSRCPGKDGKSSTQSIGLLSYTFLRSTGKEDIVVPMLDYERRDPEWSKIIRSSTRDWDKNVETIIQWSPFSSEEDLLHQFDLMKDRGTRIIIYNLWEDDQGMLELDFDADPYDIQLRGVNREERNIKMASQFPNSRHFLTYKHSLRSYVSILYLRIPPGFRIILRGIDVEHHSVVNDMMQTEQITYRPQSESYGVVTNMSAIVIIGFVKDAKHHVDVQGFNVYHKNRLIKPFWRIWNATGSDGRGVIGVLEANFVEPAHDKQGFERTTVLARLESRLVQMQKTYWSTNCHKIGYAPRRREKSAYGYDNRDSSPENDREGPSSIKTPTPASDKFYSSSYPNHNGDNGVSGKDGARLQEELRREKERRKALEVEVQLSRQKIEEMKKEQENLIEIFSEERDRRDGEEEVLRNKLEEASNTIDDLLNKIKKMEGSKVPSWRH
Question: With B1 as the binder, how does the binding [1] read?
Answer: The binding was “no binding”.

B2: AtMORC4 (untagged, in plants expressing AtMORC7-FLAG) (protein, UniProt F4KAF2 1-800)
chain: MEPIVKQENPVTTSTLSTWKPAARNKTIPPPESVIELSSSNEGSELGENLDEIAEIQSVDRTGGDDVSGTKRARSDSIASPAKRLAVMIPDDDEEFLLSTTSGQAILALPATPCNVVAAPSSWGSCKQFWKAGDYEGTSGGDWEVSAGGFDHVRVHPKFLHSNATSHKWSLGAFAELLDNALDEVRSGATFVNVDMIQNRKDGSKMILIEDNGGGMNPEKMRHCMSLGYSAKSKLADTIGQYGNGFKTSTMRLGADVIVFSRCLGKDGKSSTQSIGLLSYTFLKSTGKEDIVVPMLDYERRDSEWCPITRSSVSDWEKNVETVVQWSPYATEEELLCQFNLMKKHGTRIIIYNLWEDDEGMLELDFDTDPHDIQLRGVNRDDKNIVMASQFPNSRHYLTYKHSLRSYASILYLKISHEFRIILRGKDVEHHNIVNDMMQTEKITYRPKEAADVSQLSAVVTIGFVKDAKHHVDVQGFNVYHKNRLIKPFWRIWNAAGSDGRGVIGVLEANFVEPAHDKQGFERTTVLSRLEARLLHMQKDYWRSKCHKIGYAKRQGRKSAKDTEKDTEDRESSPEFDPKGSASSRKRTVPSSFKTPTAAPRFNTPTAASEKFNPRSNVNGGGKGSVKVSKDIGYKSSEKGGKLGNSFSKSNKRAKPQGARAVEVTNSDDDYDCDSSPERNVTELPGKSSELPKPQSGPRTLSQLEQENNELRERLDKKEEVFLLLQKDLRRERELRKTLEAEVETLKNKLKEMDKEQASLIDVFAEDRDRRDKEEENLRIKLEEASNTIQKLIDGKARGR
Question: B2 was tested. Which binding [2] did it give?
Answer: The binding was “no binding”.

These are yes or no findings as the source states them, for the method shown. Binding seen in cells or lysates may run through a third protein. Here binding means that the protein was enriched with, or labelled near, the bait; the list need not be complete. A no says only that the protein was not detected with the bait. Tags and fused reporters may be left off the sequences shown.
